pIC50: −log10 of the molar value. The structures given here were assigned with low confidence; some may be wrong.

The chains behind the UniProt entries cited, without tags or fusion partners. Residues count along the entry.
UniProt P29597, 575-876 limits assumed: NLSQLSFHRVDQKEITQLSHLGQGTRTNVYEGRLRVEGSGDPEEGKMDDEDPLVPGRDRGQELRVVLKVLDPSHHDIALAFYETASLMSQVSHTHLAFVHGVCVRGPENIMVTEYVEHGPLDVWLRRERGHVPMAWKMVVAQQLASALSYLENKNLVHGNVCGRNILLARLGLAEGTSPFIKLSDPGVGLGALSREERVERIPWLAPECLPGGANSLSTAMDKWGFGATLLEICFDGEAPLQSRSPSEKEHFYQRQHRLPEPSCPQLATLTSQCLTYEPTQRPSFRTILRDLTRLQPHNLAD

The test system of experiment [1] is Tyk2 kinase activity on STAT4. The experiment is described as follows: pSTAT4 cell assay (MSD, NK92 cells). To be noted: read-out: TYK2, compounds 1 hr, then stimulated 15 minutes. The method, then: The inhibitory potency of compounds of the disclosure against the Tyk2 kinase activity on STAT4 was evaluated using an MSD-platform plate-based assay format. NK92 cells natively expressing STAT4 and Tyk2 were serum-starved to reduce background phosphorylation levels, then cells were treated compounds for 1 hr with a 10-point four-fold dilution series starting at 10 μM. Cells were then stimulated with 30 ng/mL IL2 for 15 minutes. Cells were lysed and […] levels were quantitated using an MSD plate-based assay with anti-STAT4 antibodies. The data were normalized and the percent activity versus log concentration of compound were fitted with a 4-parameter logistic model to generate to generate IC50 curves.

The target in another experiment is JH2 domain of human Tyk2 (Homo sapiens, UniProt P29597). The experiment can be described thus: JH2 biochemical assay (TR-FRET probe displacement). The following applies: read-out: TYK2-JH2 IC50. On the procedure: The inhibitory potency of compounds of the disclosure against the kinase activity of recombinantly generated JH2 domain of human Tyk2 was evaluated in a plate-based assay using a TR-FRET assay platform. Briefly, 2 nM of recombinant JH2 domain [10×His-tagged TYK2 JH2 domain (amino acid 575-876)] was combined with 2 nM probe ((S)-6-amino-9-(2-carboxy-4-((1-(3-(8-methyl-5-(methylamino)-8H-imidazo[4,5-d]thiazolo[5,4-b]pyridin-2-yl)phenyl)ethyl)carbamoyl)phenyl)-3-iminio-5-sulfo-3H-xanthene-4-sulfonate), 0.1 nM Tb-labeled anti-His antibody, and compounds of disclosure for 60 minutes. Compounds are tested at either […] top concentration, 10 points of 3-fold dilution. The TR-FRET signal […] by compounds and signal was calculated by taking the ratio of fluorescence at 520 nm and 495 nm. The data was normalized and the percent activity versus log concentration of compound was fitted with a 4-parameter logistic model to generate IC50 curves.
On the technique in general: In TR-FRET formats the signal depends on donor and acceptor labels being close together.

As to `CC(=O)Nc1cc2c(cn1)C1(CC1)CN2c1cc(C)nc(N2C[C@H]3CN(C)C[C@H]3C2)n1`, the results for the pIC50 (in experiment [1]; at JH2 domain of human Tyk2) were less than 6.00 and 6.00 to 7.00, respectively.

The record behind these values is patent US20260258032A1, “TYROSINE KINASE 2 INHIBITORS AND USES THEREOF” (BIOGEN MA INC., priority 2022, published 2026).
